# The list shows only some results of the screen, not a fair sample: it is rich in T/C values a quarter to a half above the control, in often repeated tests (any T/C) and in doses without a T/C. Further doses and runs are listed elsewhere. T/C gives the treated animals as a percentage of the vehicle group. Some doses have a count of surviving animals in place of a T/C: the source files T/C as zero there, which appears to mark a toxic dose or a test without result, not a measured value. Some survivor counts are full or nearly so, which does not show that the dose was tolerated: survival well below the control is almost never listed, so the zero probably covers shortened survival too. Survivors were counted at the toxicity check, usually on the fifth day, unless a day is given; later deaths do not show. Schedule codes are those of the source, taken here to give the interval after Q, in days (D) or hours (H), and the number of doses after X. Where survival is the endpoint, this PubChem deposit counts one and a half times the control or more as active, and values a quarter to a half above the control carry no call in these data; other NCI protocols may use other cut-offs. Some entries were tested several times; the results are listed from low to high. Some T/C values carry the count of animals alive at the toxicity check (mostly the fifth day); where none is given, no animal had died by that day.
# Tested on: CD2F1 mice, L1210 leukemia ip, survival T/C
# Experiment: NCI In Vivo Anticancer Drug Screen. Data for tumor model L1210 Leukemia (intraperitoneal) in CD2F1 (CDF1) mice
# Conditions: higher T/C = longer survival
# How it was run: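 Ratio T/C, where T is the treated-group value and C the vehicle-dosed control value, from mice implanted with a transplantable tumor.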
# [1] = T/C endpoint: mean survival time, dose: 4.0 mg/kg/injection, schedule: Q01DX001 (ip), vehicle: saline
smiles,measurement,setting,value
COc1cc2cc(c1Cl)N1CC(O)C(C)(O)C(=O)NC(C)C(=O)OC(CC1=O)C1(C)OC1C(C)C1CC(O)(NC(=O)O1)C(OC)/C=C\C=C(\C)C2OC (stereo not drawn),T/C,"T/C endpoint: median survival time, dose: 16.0 micrograms/kg/injection, schedule: Q01DX009 (ip), vehicle: distilled water + alcohol",131 % of control
Cc1ccc2ccccc2[n+]1[O-],survivor count,"T/C endpoint: mean survival time, dose: 200.0 mg/kg/injection, schedule: Q04DX002 (ip), vehicle: saline with Tween-80",0 of 3
same,survivor count,"T/C endpoint: mean survival time, dose: 400.0 mg/kg/injection, schedule: Q04DX002 (ip), vehicle: saline with Tween-80",0 of 3
CCCCOC(=O)c1ccccc1C(=O)O.[Cu+2],survivor count,"T/C endpoint: mean survival time, dose: 100.0 mg/kg/injection, schedule: Q01DX001 (ip), vehicle: saline with Tween-80",0 of 3
same,survivor count,"T/C endpoint: mean survival time, dose: 200.0 mg/kg/injection, schedule: Q01DX001 (ip), vehicle: saline with Tween-80",0 of 3
same,survivor count,"T/C endpoint: mean survival time, dose: 400.0 mg/kg/injection, schedule: Q01DX001 (ip), vehicle: saline with Tween-80",0 of 3
CCCCCC[Se][Se]CCCCCC,survivor count,"T/C endpoint: median survival time, dose: 25.0 mg/kg/injection, schedule: Q01DX009 (ip), vehicle: Klucel (hydroxypropylcellulose) (HPC)",5 of 6
same,survivor count,"T/C endpoint: median survival time, dose: 50.0 mg/kg/injection, schedule: Q01DX009 (ip), vehicle: Klucel (hydroxypropylcellulose) (HPC)",0 of 6
CS(=O)(=O)OCCN(CCOS(C)(=O)=O)c1ccc(N=O)cc1,T/C,"T/C endpoint: mean survival time, dose: 0.06 mg/kg/injection, schedule: Q03HX008 (ip), vehicle: saline",139 % of control
same,T/C,"T/C endpoint: mean survival time, dose: 0.13 mg/kg/injection, schedule: Q03HX008 (ip), vehicle: saline",133 % of control
same,T/C,"T/C endpoint: mean survival time, dose: 0.25 mg/kg/injection, schedule: Q01DX005 (ip), vehicle: saline",134 % of control
same,T/C,"T/C endpoint: mean survival time, dose: 0.25 mg/kg/injection, schedule: Q03HX008 (ip), vehicle: saline",126 % of control
same,T/C,"T/C endpoint: mean survival time, dose: 0.5 mg/kg/injection, schedule: Q01DX001 (ip), vehicle: saline",142 % of control
same,T/C,"T/C endpoint: mean survival time, dose: 0.5 mg/kg/injection, schedule: Q03HX008 (ip), vehicle: saline",136 % of control
same,T/C,"T/C endpoint: mean survival time, dose: 0.5 mg/kg/injection, schedule: Q04DX003 (ip), vehicle: saline",131 % of control
same,T/C,"T/C endpoint: mean survival time, dose: 1.0 mg/kg/injection, schedule: Q01DX001 (ip), vehicle: saline",132 and 133 % of control
same,T/C,"T/C endpoint: mean survival time, dose: 1.0 mg/kg/injection, schedule: Q01DX009 (ip), vehicle: saline",131 % of control
same,survivor count,"T/C endpoint: mean survival time, dose: 1.0 mg/kg/injection, schedule: Q03HX008 (ip), vehicle: saline",0 of 10
same,T/C,"T/C endpoint: mean survival time, dose: 2.0 mg/kg/injection, schedule: Q01DX001 (ip), vehicle: saline",131 % of control
same,survivor count,"T/C endpoint: mean survival time, dose: 2.0 mg/kg/injection, schedule: Q01DX005 (ip), vehicle: saline",3 of 10
same,survivor count,"T/C endpoint: mean survival time, dose: 2.0 mg/kg/injection, schedule: Q01DX009 (ip), vehicle: saline",1 of 10
same,T/C,[1],145 % of control
same,survivor count,[1],2 of 10
same,survivor count,"T/C endpoint: mean survival time, dose: 4.0 mg/kg/injection, schedule: Q01DX005 (ip), vehicle: saline",0 of 10
same,survivor count,"T/C endpoint: mean survival time, dose: 4.0 mg/kg/injection, schedule: Q01DX009 (ip), vehicle: saline",1 of 10
same,survivor count,"T/C endpoint: mean survival time, dose: 4.0 mg/kg/injection, schedule: Q04DX003 (ip), vehicle: saline",4 of 10
same,survivor count,"T/C endpoint: mean survival time, dose: 8.0 mg/kg/injection, schedule: Q01DX001 (ip), vehicle: saline",0 of 10
same,survivor count,"T/C endpoint: mean survival time, dose: 8.0 mg/kg/injection, schedule: Q04DX003 (ip), vehicle: saline",0 of 10
same,T/C,"T/C endpoint: mean survival time, dose: 3.8 micrograms/kg/injection, schedule: Q03HX024 (ip), vehicle: saline",125 % of control [9 of 10 alive]
same,T/C,"T/C endpoint: mean survival time, dose: 16.3 micrograms/kg/injection, schedule: Q03HX024 (ip), vehicle: saline",143 % of control
same,survivor count,"T/C endpoint: mean survival time, dose: 62.5 micrograms/kg/injection, schedule: Q03HX024 (ip), vehicle: saline",3 of 10
OC(C1CCCCN1)C1CC(c2ccccc2)Nc2c(Cl)cc(Cl)cc21 (stereo not drawn),survivor count,"T/C endpoint: mean survival time, dose: 200.0 mg/kg/injection, schedule: Q04DX003 (ip), vehicle: saline",0 of 6
same,survivor count,"T/C endpoint: mean survival time, dose: 400.0 mg/kg/injection, schedule: Q04DX003 (ip), vehicle: saline",0 of 6
